Screen size: about 300,000 compounds; about 3,700 (1.2%) were called active. Inconclusive means that the source gave no clear call. Such entries were picked first, then a sample of the others. The call rests on the fitted dose curve; tested in HEK293 cells. Potencies beside an inconclusive call are fits to weak or partial responses and may not hold up.
test: qHTS for Inhibitors of binding or entry into cells for Lassa Virus; details: Lassa virus pseudotype entry inhibition, cell reporter; activity change, negative = inhibition: at 37.9 µM (top of the series) unless noted; further: nearly all actives have a fitted effect of over 50% in size
On the % scale 0 is the no-effect control and ±100 the full control effect; potency means the concentration at half of the fitted maximal effect.

SMILES	Potency	activity change, negative = inhibition
Cc1ccc(C(=O)Nc2ccc(C(=O)N3CCCCC3C)cc2)cc1 (stereo not given)	inconclusive: 10 µM [inhibitor, partial curve, poor fit]	–
COCCCNC(=O)c1ccc2c(c1)nc(C)n2-c1cccc(C)c1	inconclusive: 0.501 µM [inhibitor, full curve, poor fit]	–
CC(=O)c1cc(NC(=O)c2ccc(C)cc2)c(=O)oc1/C=C/N(C)C	inconclusive: 6.31 µM [activator, single point]	–
CCOc1cc2[nH]c(=S)n(Cc3ccc(C(=O)NCCCN(CC)CC)cc3)c(=O)c2cc1OCC	inconclusive: 7.94 µM [inhibitor, single point]	–
Cc1cc(OCC(=O)NCCc2ccc(S(N)(=O)=O)cc2)c2c(C)c(C)c(=O)oc2c1	inconclusive: 35.5 µM [inhibitor, single point]	–
CC(=O)Nc1ccc(S(=O)(=O)Oc2ccc3c(c2)C(C)=CC(C)(C)N3)cc1	active: 0.82 µM	–
C/C(=N\NC(=S)NCCc1ccccc1)c1ccc(Cl)cc1	inconclusive: 5.8 µM [inhibitor, full curve, poor fit]	–
CC(Nc1cccc2ccccc12)C(=O)N/N=C/c1ccccn1 (stereo not given)	–	inactive: -16.3%
COCCNC(=O)CN(C)S(=O)(=O)c1ccc(Br)cc1	–	inactive: -8.39%
CCC(CO)N=CC1=C(O)CC(c2ccccc2)CC1=O (stereo not given)	–	inactive: -17.2%
CCN(CC)S(=O)(=O)c1cccc(NC(=O)c2ccc(SC)cc2OC)c1	inconclusive: 10 µM [inhibitor, partial curve, poor fit]	–
Nc1ccc2ncccc2c1N	inactive	–
c1nc2n(n1)C1=C(CCCC1)C1(CCCCC1)N2	inconclusive: 35.5 µM [activator, single point]	–
CCCSc1ncnc2c1oc1ccccc12	inconclusive: 16.4 µM [activator, single point]	–
COc1ccc(CNS(=O)(=O)c2cc(Br)cc3c2N(C(C)=O)C(C)C3)cc1 (stereo not given)	inactive	–
Cc1ccc(NC(=O)CSc2nnc(Cn3cnc4ccccc43)o2)c(C)c1	inconclusive: 29.1 µM [activator, partial curve, poor fit]	–
CCCCn1c(=NC(=O)c2c(-c3c(F)cccc3Cl)noc2C)c(C(=O)OCC)cc2c(=O)n3ccccc3nc21	inconclusive: 3.16 µM [activator, single point]	–
Cc1ccc(-c2noc(-c3ccc(NCc4cccnc4)c([N+](=O)[O-])c3)n2)cc1	–	inactive: 2.29% [at 46.1 µM]
CCOc1cc2c(cc1O)CCC1C2CCC2(C)C(O)CCC12 (stereo not given)	inconclusive: 0.501 µM [inhibitor, full curve, poor fit]	–
CC(C)(C)NS(=O)(=O)c1ccc(CCC(=O)Nc2ccc3c(c2)OCO3)cc1	inconclusive: 4.11 µM [inhibitor, partial curve, poor fit]	–
CCOCN(C(=O)Cn1cnc2ccccc21)c1c(C)cccc1CC	–	inactive: 10.2%
CC(=O)Nc1ccc(N(C(=O)Cc2c[nH]c3ccccc23)C(C(=O)NC2CCCCC2)c2ccco2)cc1 (stereo not given)	active: 5.8 µM	–
O=C(COCc1cc(-c2cccs2)on1)N1CCN(c2ccc(F)cc2)CC1	inconclusive: 35.5 µM [inhibitor, single point]	–

SMILES	Potency	activity change, negative = inhibition
Oc1ccccc1Nc1nc(NCC2CCCO2)c2ccccc2n1 (stereo not given)	inconclusive: 14.6 µM [inhibitor, single point]	–
C[C@H]1CN(CCc2ccccc2)C(=O)[C@H]1CC(=O)Nc1ccc(Br)cc1	inconclusive: 0.791 µM [inhibitor, full curve, poor fit]	–
O=C(c1ccc(C(F)(F)F)cc1)C1CCCN(Cc2cccn2-c2ncccn2)C1 (stereo not given)	inconclusive: 2.51 µM [activator, full curve, poor fit]	–
O=c1c(=O)n(-c2ccccc2)ccn1Cc1c(F)cccc1Cl	–	inactive: -8.32% [at 46.1 µM]
COc1cc(CNCCSc2nnnn2C)ccc1OCc1ccc(C)cc1	inconclusive: 5.62 µM [activator, single point]	–
O=C(Nc1c(Cl)cc(Cl)cc1C(=O)NCCN1CCOCC1)c1ccc(Cl)cc1Cl	inconclusive: 0.82 µM [inhibitor, full curve, poor fit]	–
CCOc1cccc(NC(=O)c2sc3nc(-c4ccc(F)cc4)ccc3c2N)c1	–	inactive: 16% [at 46.1 µM]
C=CCn1c(C)cc(C2=NNC(=NC(C)(C)C)SC2)c1C	inconclusive: 14.6 µM [inhibitor, partial curve]	–
COc1cc(OC)c(C2C(C#N)=C(N)OC3=C2C(=O)CC(C)(C)C3)cc1OC (stereo not given)	inconclusive: 35.5 µM [inhibitor, single point]	–
Cc1ccc(NC(=O)CN2C(=O)NC(C)(c3ccccc3)C2=O)c(C)c1 (stereo not given)	–	inactive: 3.13%
COc1ccccc1C(=O)NCC(C)(C)CN=C1NS(=O)(=O)c2ccccc21	–	inactive: -22.6%
CCOC(=O)/C=C/C(=O)OCC(=O)NCc1ccccc1	–	inactive: 10.5%
O=[N+]([O-])c1cccc(S(=O)(=O)NCc2ccccn2)c1	inconclusive: 8.91 µM [activator, partial curve, poor fit]	–
O=C(C[n+]1ccc(/C=C/c2ccccc2)cc1)c1ccc2c(c1)OCCO2	inconclusive: 31.6 µM [inhibitor, partial curve, poor fit]	–
CC1(C)CC(NC(=O)C(F)(F)F)CC(C)(C)N1OC(=O)c1ccco1	inconclusive: 29.1 µM [inhibitor, partial curve, poor fit]	–
Cc1ccc(Cn2c(C)c(CNCC(C)c3ccccc3)c(C(=O)O)c2C)cc1 (stereo not given)	–	inactive: 18.9% [at 46.1 µM]
Clc1ccc2oc(-c3ccccc3)nc2c1	–	inactive: -2.2%
N#CC1=C(N)NC(=S)C(C(N)=O)C1c1ccccc1F (stereo not given)	inconclusive: 10 µM [inhibitor, partial curve, poor fit]	–
CC1=C/C(=C\C=C(C#N)C#N)N(C)c2ccccc21	–	inactive: -0.365% [at 46.1 µM]
Cc1ccc(OC(C)C(=O)N2CCN(CCc3ccncc3)CC2)cc1C (stereo not given)	–	inactive: -8.92% [at 46.1 µM]
O=C(NCCC1=CCCCC1)C(=O)c1c[nH]c2ccccc12	inconclusive: 35.5 µM [inhibitor, single point]	–
C=CCOC(=O)C1=C(C)NC(SCC(=O)Nc2nccs2)=C(C#N)C1c1cccs1 (stereo not given)	inconclusive: 35.5 µM [inhibitor, single point]	–

At a glance, part of the list above.
SMILES	Potency	activity change, negative = inhibition
O=C(Nc1c(Cl)cc(Cl)cc1C(=O)NCCN1CCOCC1)c1ccc(Cl)cc1Cl	inconclusive: 0.82 µM [inhibitor, full curve, poor fit]	–
CCOc1cccc(NC(=O)c2sc3nc(-c4ccc(F)cc4)ccc3c2N)c1	–	inactive: 16% [at 46.1 µM]
C=CCn1c(C)cc(C2=NNC(=NC(C)(C)C)SC2)c1C	inconclusive: 14.6 µM [inhibitor, partial curve]	–
COc1cc(OC)c(C2C(C#N)=C(N)OC3=C2C(=O)CC(C)(C)C3)cc1OC (stereo not given)	inconclusive: 35.5 µM [inhibitor, single point]	–
Cc1ccc(NC(=O)CN2C(=O)NC(C)(c3ccccc3)C2=O)c(C)c1 (stereo not given)	–	inactive: 3.13%
COc1ccccc1C(=O)NCC(C)(C)CN=C1NS(=O)(=O)c2ccccc21	–	inactive: -22.6%
CCOC(=O)/C=C/C(=O)OCC(=O)NCc1ccccc1	–	inactive: 10.5%
O=[N+]([O-])c1cccc(S(=O)(=O)NCc2ccccn2)c1	inconclusive: 8.91 µM [activator, partial curve, poor fit]	–
O=C(C[n+]1ccc(/C=C/c2ccccc2)cc1)c1ccc2c(c1)OCCO2	inconclusive: 31.6 µM [inhibitor, partial curve, poor fit]	–
CC1(C)CC(NC(=O)C(F)(F)F)CC(C)(C)N1OC(=O)c1ccco1	inconclusive: 29.1 µM [inhibitor, partial curve, poor fit]	–
Cc1ccc(Cn2c(C)c(CNCC(C)c3ccccc3)c(C(=O)O)c2C)cc1 (stereo not given)	–	inactive: 18.9% [at 46.1 µM]
Clc1ccc2oc(-c3ccccc3)nc2c1	–	inactive: -2.2%

From PubChem BioAssay AID540256 (National Center for Advancing Translational Sciences (NCATS), 2011)
